Laboratory results as given in PubChem BioAssay AID504834 (National Center for Advancing Translational Sciences (NCATS), 2011).
About 22,000 (6.9%) of roughly 320,000 compounds were called active. Inconclusive results, whose numbers are uncertain, are shown with a selection of clear calls. Calls come from the whole dose curve; as a rule, active = well fitted inhibition curve with a large enough effect; inconclusive = small, poorly fitted or top-dose-only effect, or another doubt; inactive = no such curve, though single readings can be large or run the other way. A potency beside an inconclusive call is a rough fit, not a confirmed value.

test: Primary qHTS for delayed death inhibitors of the malarial parasite plastid, 96 hour incubation; settings: P. falciparum luciferase reporter growth; series mostly up to 28.7 µM
Procedure, shortened: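 Cell-based qHTS: luciferase-tagged P. falciparum in erythrocytes (2% hematocrit, 0.05% parasitemia final) incubated with compounds for 96 hours, 37 C, 5% CO2; luciferase detection reagent then added and luminescence measured.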
Potency is the fitted concentration of half-maximal effect.

| Structure (SMILES) | Potency |
| --- | --- |
| CCOc1ccc(C(=O)NCC(C)NC(=O)c2ccc(OCC)cc2)cc1 (stereo not drawn) | inactive |
| CCN(CC)S(=O)(=O)c1ccc(C(=O)NCC2CCCCC2)cc1 | inconclusive: 18.5 µM [inhibitor, partial curve, poor fit] |
| Cc1cc(C(=O)Nc2ccc3c(c2)OCO3)no1 | inactive |
| COc1ccc(Cn2c(CCC(=O)O)nc3cccnc32)cc1 | inactive |
| CC(C)(C)c1cc(CN(CCO)CCO)c(O)c(C(C)(C)C)c1 | inconclusive: 4.65 µM [inhibitor, partial curve, poor fit] |
| O=C(CN1CCc2ccccc2C1)Nc1ccccc1C(=O)NC1CC1 | inconclusive: 18.5 µM [inhibitor, single point] |
| COc1ccc(S(=O)(=O)N2CCCCC2)cc1NC(=O)c1ccc(Cl)nc1 | inconclusive: 10.4 µM [inhibitor, partial curve, poor fit] |
| O=c1oc2ccccc2cc1-c1csc(Nc2nc3ccc(F)cc3s2)n1 | inconclusive: 10.4 µM [inhibitor, single point] |
| N#CC1=C(N)n2c(s/c(=C\c3ccco3)c2=O)=C(C#N)C1c1ccco1 (stereo not drawn) | inconclusive: 18.5 µM [inhibitor, single point] |
| COc1ccc(C(C(=O)Nc2ccc3c(c2)OCO3)N(C)C(=O)Cc2c[nH]c3ccccc23)cc1 (stereo not drawn) | inconclusive: 0.828 µM [inhibitor, partial curve, poor fit] |
| Cc1cc(NC(=O)C2CCCO2)ccc1Br (stereo not drawn) | inconclusive: 0.0586 µM [inhibitor, full curve, poor fit] |
| O=C(O)CCCn1cc(NC(=O)COc2ccc(F)cc2)cn1 | inconclusive: 13.1 µM [inhibitor, single point] |
| CCOC(=O)C1(CCc2ccccc2)CCN(C(=O)C2CCCO2)CC1 (stereo not drawn) | inconclusive: 18.5 µM [inhibitor, single point] |
| Cc1cccc2c1-c1sc(C(=O)Nc3ccccc3N3CCN(C)CC3)cc1CO2 | inconclusive: 1.85 µM [inhibitor, full curve] |
| Fc1ccc2[nH]c3c(N4CCN(C5CCCCC5)CC4)ncnc3c2c1 | inactive |
| CC(C)CNS(=O)(=O)c1ccc(CCC(=O)N2CCN(c3ccc(F)cc3)CC2)cc1 | inconclusive: 18.5 µM [inhibitor, single point] |
| Cc1cccc(NC(=O)CSc2ccc(-c3ccccn3)nn2)c1C | inconclusive: 7.38 µM [inhibitor, partial curve, poor fit] |
| CCOc1ccc(CNCCN2CCCC2)cc1 | inconclusive: 2.33 µM [inhibitor, partial curve, poor fit] |

Reformatted: entries from further up.
Structure (SMILES)	Potency
CCOc1ccc(C(=O)NCC(C)NC(=O)c2ccc(OCC)cc2)cc1 (stereo not drawn)	inactive
O=C(CN1CCc2ccccc2C1)Nc1ccccc1C(=O)NC1CC1	inconclusive: 18.5 µM [inhibitor, single point]
